This list was built around the results that the source calls inconclusive (neither active nor inactive); the mix of calls is not that of the screen. Calls of active or inactive are those of the source.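 The calls were made as follows: active = fitted curve reaches 200% activation at or below the highest valid dose tested for that compound; inconclusive = flat fit between 30 and 70% activation, or unreliable fit; inactive = the rest.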
Molecular target: Endoplasmic reticulum aminopeptidase 2 (Homo sapiens) (UniProt Q6P179)
Test: enhanced ERAP2 Arg-AMC hydrolysis – biochemical, fluorescence plate reader, cherry-picked samples, selectivity assay for selective ERAP1 modulator project, dose response (AID 743319)
Settings: recombinant ERAP2, Arg-AMC cleavage fluorescence, 1 h; at 11 µM (top of the series)

By UniProt entry, the sequences of proteins in these tests, tags left out. Where a name states a change or a piece, a line headed by the entry shows the natural chain unless it says otherwise.
UniProt Q6P179: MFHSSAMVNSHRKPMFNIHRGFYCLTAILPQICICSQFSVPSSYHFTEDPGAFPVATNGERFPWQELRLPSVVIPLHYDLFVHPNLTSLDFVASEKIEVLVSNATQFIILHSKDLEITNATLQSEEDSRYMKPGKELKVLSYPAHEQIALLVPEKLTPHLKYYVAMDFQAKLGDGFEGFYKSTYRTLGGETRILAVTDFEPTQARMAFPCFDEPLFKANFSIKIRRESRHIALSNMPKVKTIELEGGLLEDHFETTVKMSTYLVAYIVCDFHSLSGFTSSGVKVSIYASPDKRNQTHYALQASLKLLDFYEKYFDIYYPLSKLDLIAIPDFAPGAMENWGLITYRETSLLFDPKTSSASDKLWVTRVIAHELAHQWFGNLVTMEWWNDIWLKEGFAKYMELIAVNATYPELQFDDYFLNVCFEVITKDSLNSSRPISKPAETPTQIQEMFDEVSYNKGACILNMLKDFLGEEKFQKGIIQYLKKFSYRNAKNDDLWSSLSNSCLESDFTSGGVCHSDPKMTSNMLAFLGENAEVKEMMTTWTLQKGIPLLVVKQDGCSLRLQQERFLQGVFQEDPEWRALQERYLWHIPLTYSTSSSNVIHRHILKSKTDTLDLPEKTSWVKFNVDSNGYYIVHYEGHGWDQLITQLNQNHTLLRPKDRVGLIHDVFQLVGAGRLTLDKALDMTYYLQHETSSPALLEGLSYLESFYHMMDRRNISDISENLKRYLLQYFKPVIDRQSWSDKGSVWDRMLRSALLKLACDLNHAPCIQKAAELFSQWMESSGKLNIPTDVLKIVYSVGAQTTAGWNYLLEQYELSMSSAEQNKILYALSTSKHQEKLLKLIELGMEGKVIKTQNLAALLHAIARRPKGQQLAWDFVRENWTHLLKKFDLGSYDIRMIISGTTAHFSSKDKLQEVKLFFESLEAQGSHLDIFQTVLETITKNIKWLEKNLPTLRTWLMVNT

SMILES | activation
C[C@H]1CN([C@@H](C)CO)C(=O)c2cccc(NC(=O)Nc3ccc(C(F)(F)F)cc3)c2O[C@@H]1CN(C)CC1CC1 | inactive: -16.1%
CC(C)[C@@H](C(=O)N[C@@H](CCc1ccc(O)cc1)C(=O)O)N(C)C(=O)[C@H](CO)NC(=O)[C@@H](O)[C@H](N)CCCCCCCCl | inconclusive: -88%
